In article PMC3305387:
These are yes or no findings as the source states them, for the method shown. In cells and extracts the contact can be indirect. Some entries that bind do so weakly or less than the wild type. Values belong to the substance of their own block, whether it stands above or below them.

The chains behind the UniProt entries cited, without tags or fusion partners.
UniProt Q80U70: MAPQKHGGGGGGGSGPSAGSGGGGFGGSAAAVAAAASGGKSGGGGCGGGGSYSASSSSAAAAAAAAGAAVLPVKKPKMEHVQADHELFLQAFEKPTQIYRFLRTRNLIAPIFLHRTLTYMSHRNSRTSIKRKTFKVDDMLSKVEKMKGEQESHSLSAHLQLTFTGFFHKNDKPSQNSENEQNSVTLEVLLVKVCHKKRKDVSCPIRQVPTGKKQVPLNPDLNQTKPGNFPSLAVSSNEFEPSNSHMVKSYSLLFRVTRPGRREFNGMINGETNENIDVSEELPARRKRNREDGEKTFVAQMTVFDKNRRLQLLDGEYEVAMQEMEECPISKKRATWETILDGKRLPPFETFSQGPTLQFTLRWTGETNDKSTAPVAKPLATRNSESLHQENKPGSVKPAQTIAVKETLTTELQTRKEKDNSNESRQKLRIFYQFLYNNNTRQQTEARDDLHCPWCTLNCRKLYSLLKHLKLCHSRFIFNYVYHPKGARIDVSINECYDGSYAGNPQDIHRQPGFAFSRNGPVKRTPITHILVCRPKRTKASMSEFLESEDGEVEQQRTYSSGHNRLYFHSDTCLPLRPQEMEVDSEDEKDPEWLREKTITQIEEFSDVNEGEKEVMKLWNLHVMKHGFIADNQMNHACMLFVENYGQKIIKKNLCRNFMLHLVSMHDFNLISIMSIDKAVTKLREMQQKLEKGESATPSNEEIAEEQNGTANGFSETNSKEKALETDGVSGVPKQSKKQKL
UniProt Q02395: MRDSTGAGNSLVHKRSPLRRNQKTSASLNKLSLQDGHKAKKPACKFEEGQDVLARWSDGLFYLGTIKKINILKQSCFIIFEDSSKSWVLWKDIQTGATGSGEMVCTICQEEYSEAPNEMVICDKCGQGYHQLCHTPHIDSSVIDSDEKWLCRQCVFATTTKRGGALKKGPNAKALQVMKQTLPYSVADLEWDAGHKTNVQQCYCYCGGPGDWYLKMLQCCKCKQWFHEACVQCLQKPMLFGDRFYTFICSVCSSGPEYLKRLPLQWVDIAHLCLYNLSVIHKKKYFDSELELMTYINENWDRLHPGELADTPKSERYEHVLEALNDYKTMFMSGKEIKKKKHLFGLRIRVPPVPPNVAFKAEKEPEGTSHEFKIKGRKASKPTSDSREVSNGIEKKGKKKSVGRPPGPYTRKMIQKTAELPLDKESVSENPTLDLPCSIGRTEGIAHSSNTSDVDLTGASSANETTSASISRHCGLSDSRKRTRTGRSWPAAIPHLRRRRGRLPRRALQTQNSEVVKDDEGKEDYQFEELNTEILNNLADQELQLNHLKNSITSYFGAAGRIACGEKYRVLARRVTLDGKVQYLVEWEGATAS
UniProt Q61188: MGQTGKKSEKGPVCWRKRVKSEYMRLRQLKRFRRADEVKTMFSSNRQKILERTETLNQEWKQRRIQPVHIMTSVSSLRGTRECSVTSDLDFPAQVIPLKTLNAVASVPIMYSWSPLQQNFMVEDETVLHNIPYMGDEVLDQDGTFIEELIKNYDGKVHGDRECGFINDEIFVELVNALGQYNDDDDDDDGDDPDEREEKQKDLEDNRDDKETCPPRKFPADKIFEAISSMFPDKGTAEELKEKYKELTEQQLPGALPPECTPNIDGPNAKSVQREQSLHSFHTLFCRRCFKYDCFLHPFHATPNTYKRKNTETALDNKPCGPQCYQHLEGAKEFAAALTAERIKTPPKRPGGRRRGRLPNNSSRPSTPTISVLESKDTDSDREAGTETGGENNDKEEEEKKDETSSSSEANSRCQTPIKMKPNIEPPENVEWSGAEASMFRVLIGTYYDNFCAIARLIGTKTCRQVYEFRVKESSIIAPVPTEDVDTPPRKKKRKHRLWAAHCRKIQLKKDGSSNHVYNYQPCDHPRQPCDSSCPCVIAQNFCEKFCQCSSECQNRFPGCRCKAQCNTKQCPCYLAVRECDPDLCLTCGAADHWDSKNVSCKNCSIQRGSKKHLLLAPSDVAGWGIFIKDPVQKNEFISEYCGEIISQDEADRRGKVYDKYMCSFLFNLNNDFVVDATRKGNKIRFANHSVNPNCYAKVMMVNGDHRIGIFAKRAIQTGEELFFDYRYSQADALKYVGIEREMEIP
UniProt Q921E6: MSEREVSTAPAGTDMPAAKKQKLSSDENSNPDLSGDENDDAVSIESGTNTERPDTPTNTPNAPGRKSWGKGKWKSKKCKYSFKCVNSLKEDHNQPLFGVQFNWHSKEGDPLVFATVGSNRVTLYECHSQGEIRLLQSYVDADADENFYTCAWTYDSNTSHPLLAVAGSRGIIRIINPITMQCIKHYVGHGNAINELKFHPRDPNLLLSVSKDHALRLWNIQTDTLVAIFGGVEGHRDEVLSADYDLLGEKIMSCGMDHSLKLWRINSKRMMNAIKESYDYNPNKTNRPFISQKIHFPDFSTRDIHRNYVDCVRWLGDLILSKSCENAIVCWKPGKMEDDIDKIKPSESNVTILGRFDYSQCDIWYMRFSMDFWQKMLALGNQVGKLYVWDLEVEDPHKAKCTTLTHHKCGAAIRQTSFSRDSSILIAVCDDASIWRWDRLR

Tests used:
[1] = biological target: Suz12-TAP (mouse) (UniProt Q80U70); experiment: co-IP; FlagM2 resin (40 µl) added to 800 µg ESC protein lysate overnight; TAP-tagged bait precipitated, immunoblot; scramble and Pcl3 shRNA cells where used
[2] = biological target: Pcl2 (mouse (endogenous in E14 ESCs)) (UniProt Q02395); experiment: co-IP; reciprocal immunoprecipitation of Pcl2 from ESCs expressing Suz12-TAP or Pcl3-TAP; immunoblot
[3] = biological target: Ezh2 (mouse (endogenous in E14 ESCs)) (UniProt Q61188); experiment: co-IP; co-immunoprecipitation of the PRC2 core components from scramble and Pcl3 shRNA-expressing ESCs
[4] = biological target: Suz12 (mouse (endogenous in E14 ESCs)) (UniProt Q80U70); experiment: as above

binding [1]: binds
Substance: Pcl2 (from UniProt Q02395 1-593)

binding [2]: binds
Substance: Suz12-TAP (from UniProt Q80U70 1-741)

binding [3]: binds | binding [4]: binds
Substance: Eed (from UniProt Q921E6 1-441)
